Reference: PubChem BioAssay AID743121 (NCATS, 2013)
Test: 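Genes whose silencing strengthens cell killing by camptothecin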 (primary screen). Cells: MDA-MB-231 cells, a human breast cancer line. Reagents: single siRNA against human genes, 20 nM siRNA (0.8 pmol per well). Time to read-out: 120 h (drug added 48 h after transfection, read 72 h later). Conditions: camptothecin 20 nM (about EC30) for 72 h; vehicle 0.1% DMSO in parallel plates. Read-out: 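Cell viability by ATP luminescence (CellTiter-Glo) as % of non-targeting siRNA wells, and the log2 ratio of viability without drug over viability with camptothecin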. Reading the numbers: log2 vehicle/camptothecin viability: higher = stronger sensitisation to camptothecin; viability with camptothecin: higher = more viable cells. Call rule: 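Each gene scored by redundant siRNA activity (RSA) over its individual siRNA ratios; a gene is called active at p < 0.001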.
In all, the deposit lists about 26,000 reagents; this is a part drawn at random. Over the whole deposit, 167 (0.63%) were called active. 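Calls are per gene from RSA p-values that are not deposited; an individual active-marked siRNA can sensitise only weakly.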 Reagents against one gene are numbered here. Not all columns of the deposit are shown.

no.	gene	siRNA no.	log2 vehicle/camptothecin viability	viability with camptothecin (% of control)	outcome
1	CIDEC (GeneID 63924)	1	-0.333	47.1	inactive
2	CIDEC (GeneID 63924)	2	-0.147	92.6	inactive
3	CIDEC (GeneID 63924)	3	-0.277	104	inactive
4	CIDEC (GeneID 63924)	4	1.22	15.8	inactive
5	RGS2 (GeneID 5997)	1	-0.00195	91.7	inactive
6	RGS2 (GeneID 5997)	2	-0.0107	97.7	inactive
7	RGS2 (GeneID 5997)	3	0.0764	100	inactive
8	IQGAP2 (GeneID 10788)	1	-0.218	70.4	inactive
9	IQGAP2 (GeneID 10788)	2	-0.201	68.5	inactive
10	IQGAP2 (GeneID 10788)	3	0.0277	61.3	inactive
11	IQGAP2 (GeneID 10788)	4	-0.145	82.2	inactive
12	COX7A2L (GeneID 9167)	1	-0.0744	103	inactive
13	COX7A2L (GeneID 9167)	2	0.265	72.7	inactive
14	COX7A2L (GeneID 9167)	3	-0.00622	105	inactive
15	PKN2 (GeneID 5586)	1	-0.181	120	inactive
16	PKN2 (GeneID 5586)	2	0.965	22.5	inactive
17	PKN2 (GeneID 5586)	3	-0.122	103	inactive
18	PKN2 (GeneID 5586)	4	-0.449	80.2	inactive
19	PGLYRP4 (GeneID 57115)	1	-0.216	40.2	inactive
20	PGLYRP4 (GeneID 57115)	2	0.242	19.1	inactive
21	PGLYRP4 (GeneID 57115)	3	-0.231	118	inactive
22	PGLYRP4 (GeneID 57115)	4	1.15	9.49	inactive
23	NEK1 (GeneID 4750)	1	0.00701	93.3	inactive
24	NEK1 (GeneID 4750)	2	-0.175	73.3	inactive
25	NEK1 (GeneID 4750)	3	-0.335	62.8	inactive
26	NEK1 (GeneID 4750)	4	-0.129	93	inactive
27	NUP62 (GeneID 23636)	1	-0.419	68.4	inactive
28	NUP62 (GeneID 23636)	2	-0.59	17.3	inactive
29	NUP62 (GeneID 23636)	3	0.154	15.7	inactive
30	NUP62 (GeneID 23636)	4	-0.235	73.5	inactive
31	DUSP21 (GeneID 63904)	1	0.108	63.4	inactive
32	DUSP21 (GeneID 63904)	2	0.27	46.8	inactive
33	DUSP21 (GeneID 63904)	3	-0.0702	98.2	inactive
34	GDI1 (GeneID 2664)	1	-0.612	68.6	inactive
35	GDI1 (GeneID 2664)	2	-0.664	104	inactive
36	GDI1 (GeneID 2664)	3	-0.31	71.7	inactive
37	GDI1 (GeneID 2664)	4	-0.24	99.9	inactive
38	CCDC86 (GeneID 79080)	1	-0.25	58.4	inactive
39	CCDC86 (GeneID 79080)	2	-0.545	21.1	inactive
40	CCDC86 (GeneID 79080)	3	0.0892	31.9	inactive
41	CCDC86 (GeneID 79080)	4	0.142	25.8	inactive
42	P2RX2 (GeneID 22953)	1	-0.632	148	inactive
43	P2RX2 (GeneID 22953)	2	-0.241	52.3	inactive
44	P2RX2 (GeneID 22953)	3	-0.197	42.1	inactive
45	P2RX2 (GeneID 22953)	4	-0.0672	67.8	inactive
46	FOXL2 (GeneID 668)	1	0.736	35.6	inactive
47	FOXL2 (GeneID 668)	2	-0.164	92.4	inactive
48	FOXL2 (GeneID 668)	3	-0.499	61.2	inactive
49	FOXL2 (GeneID 668)	4	-0.202	112	inactive
50	IL6 (GeneID 3569)	1	0.137	79.8	inactive
51	IL6 (GeneID 3569)	2	-0.0998	93.6	inactive
52	IL6 (GeneID 3569)	3	-0.294	70	inactive
53	IL6 (GeneID 3569)	4	-0.279	53.8	inactive
54	SLC6A2 (GeneID 6530)	1	0.151	81.5	inactive
55	SLC6A2 (GeneID 6530)	2	0.6	59.1	inactive
56	SLC6A2 (GeneID 6530)	3	0.103	81.5	inactive
57	SLC6A2 (GeneID 6530)	4	0.667	33	inactive
58	GPR85 (GeneID 54329)	1	-0.294	60.8	inactive
59	GPR85 (GeneID 54329)	2	-0.187	113	inactive
60	GPR85 (GeneID 54329)	3	-0.179	42.9	inactive
61	GPR85 (GeneID 54329)	4	0.597	72.7	inactive
62	CYTH3 (GeneID 9265)	1	-0.516	65.4	inactive
63	CYTH3 (GeneID 9265)	2	-0.4	57.6	inactive
64	CYTH3 (GeneID 9265)	3	-0.00941	91	inactive
65	CYTH3 (GeneID 9265)	4	-0.0826	101	inactive
66	FRAT1 (GeneID 10023)	1	-0.501	74	inactive
67	FRAT1 (GeneID 10023)	2	-0.0757	59.7	inactive
68	FRAT1 (GeneID 10023)	3	-0.337	86.3	inactive
69	FRAT1 (GeneID 10023)	4	-0.419	74.2	inactive
70	QDPR (GeneID 5860)	1	-0.0949	106	inactive
71	QDPR (GeneID 5860)	2	0.0502	61.5	inactive
72	PPP2R5C (GeneID 5527)	1	0.175	28.5	inactive
73	PPP2R5C (GeneID 5527)	2	-0.19	108	inactive
74	PPP2R5C (GeneID 5527)	3	-0.731	96.3	inactive
75	PPP2R5C (GeneID 5527)	4	-0.203	106	inactive
76	TP53AIP1 (GeneID 63970)	1	0.248	65.9	inactive
77	TP53AIP1 (GeneID 63970)	2	1.01	32.3	inactive
78	TP53AIP1 (GeneID 63970)	3	0.129	64.9	inactive
79	TP53AIP1 (GeneID 63970)	4	-0.231	50.9	inactive
80	UTS2R (GeneID 2837)	1	-0.418	104	inactive
81	UTS2R (GeneID 2837)	2	0.479	37.5	inactive
82	UTS2R (GeneID 2837)	3	-0.571	86.9	inactive
83	UTS2R (GeneID 2837)	4	-0.142	87.2	inactive
84	PAK4 (GeneID 10298)	1	-0.477	82.6	inactive
85	PAK4 (GeneID 10298)	2	-0.0243	79.1	inactive
86	PAK4 (GeneID 10298)	3	-0.0774	47.8	inactive
87	PAK4 (GeneID 10298)	4	-0.107	68.7	inactive

Targets above whose gene name begins with T or t (4):
gene	siRNA no.	log2 vehicle/camptothecin viability	viability with camptothecin (% of control)	outcome
TP53AIP1 (GeneID 63970)	1	0.248	65.9	inactive
TP53AIP1 (GeneID 63970)	2	1.01	32.3	inactive
TP53AIP1 (GeneID 63970)	3	0.129	64.9	inactive
TP53AIP1 (GeneID 63970)	4	-0.231	50.9	inactive
